Source: PubChem BioAssay AID1671190 (National Center for Advancing Translational Sciences (NCATS), 2021)
The campaign covered roughly 580,000 compounds. About 6,100 (1.1%) were called active. This list was built around the results that the source calls inconclusive (neither active nor inactive); the mix of calls is not that of the screen. Calls come from the whole dose curve; as a rule, active = well fitted inhibition curve with a large enough effect; inconclusive = small, poorly fitted or top-dose-only effect, or another doubt; inactive = no such curve, though single readings can be large or run the other way. Where the call is inconclusive, the potency comes from a doubtful curve fit.

Protein sequences, listed by entry. Tags and fused reporters are not part of them. Lines headed by an entry give the natural chain unless they say otherwise; changes in a name come on top.
UniProt P18054: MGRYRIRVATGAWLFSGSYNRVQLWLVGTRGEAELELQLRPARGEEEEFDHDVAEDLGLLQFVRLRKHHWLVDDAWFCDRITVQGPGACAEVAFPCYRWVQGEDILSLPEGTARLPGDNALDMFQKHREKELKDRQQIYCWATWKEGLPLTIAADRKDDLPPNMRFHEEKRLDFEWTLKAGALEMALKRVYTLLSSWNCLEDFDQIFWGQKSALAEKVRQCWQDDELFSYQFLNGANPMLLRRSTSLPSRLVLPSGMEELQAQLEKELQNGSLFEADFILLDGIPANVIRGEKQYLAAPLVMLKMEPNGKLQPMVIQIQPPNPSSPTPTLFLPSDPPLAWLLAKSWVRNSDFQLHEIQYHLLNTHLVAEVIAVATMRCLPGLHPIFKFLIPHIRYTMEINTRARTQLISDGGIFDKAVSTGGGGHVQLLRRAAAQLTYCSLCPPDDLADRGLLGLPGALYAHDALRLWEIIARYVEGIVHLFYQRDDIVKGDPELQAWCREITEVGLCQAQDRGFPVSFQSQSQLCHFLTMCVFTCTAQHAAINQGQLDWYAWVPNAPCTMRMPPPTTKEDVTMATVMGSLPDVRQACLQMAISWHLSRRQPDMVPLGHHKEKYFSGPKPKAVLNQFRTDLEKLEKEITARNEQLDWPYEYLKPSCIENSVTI

Molecular target: Polyunsaturated fatty acid lipoxygenase ALOX12 (Homo sapiens) (UniProt P18054)
Test: Primary qHTS assay for inhibitors of human arachidonate 12S-lipoxygenase (ALOX12): Round 2
Conditions: purified 12hLO, xylenol orange hydroperoxide absorbance; activity change, negative = inhibition: at 108 µM (top of the series) unless noted
Summary of the method: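 Purified human 12hLO (150 nM final) in 25 mM Hepes, 0.01% Triton X-100, pH 7.0 was preincubated 15 min at room temperature with compound. Then 40 uM arachidonic acid was added, 30 min. Hydroperoxide was read by Fe-XO absorbance ratio 573/405 nm.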
% is set by controls: 0 for no effect and ±100 for the full control effect; potency is the fitted concentration of half-maximal effect.

Row | Compound | Potency | activity change, negative = inhibition
1 | CCc1ccc(-n2nc(CO)c(C(=O)NCCOC)n2)cc1 | inactive | 
2 | CCc1ccc(-c2cc(C)no2)cc1S(=O)(=O)N1CCN(c2ccccn2)CC1 | inactive | 
3 | CC(C)c1cc(C(=O)O)n(-c2ccccc2)n1 | inconclusive: 2.51 µM [inhibitor, full curve, poor fit] | 
4 | Cc1ccc(-c2cc(C(=O)N/N=C/c3cccnc3)c3ccccc3n2)cc1C | inactive | 
5 | Cc1scc(CN2CCN(c3ccccc3F)CC2)c1C | inconclusive: 63.1 µM [inhibitor, partial curve, poor fit] | 
6 | CC(Sc1nnc(-c2ccco2)n1C(C)C)C(=O)Nc1nccs1 (centres undefined) | inconclusive: 50.1 µM [inhibitor, partial curve, poor fit] | 
7 | CCOC(=O)C1(C)CCCN(C(=O)CCc2ccccc2)C1 (centres undefined) | inactive | 
8 | Cc1ccccc1CN1C[C@@H]2C[C@@H](c3cn(C)nc3-c3ccccc3)N3CCC[C@@]23C1=O | inconclusive: 50.1 µM [inhibitor, partial curve, poor fit] | 
9 | CC(C)Oc1ccc(Nc2nccc3c2cc(-c2ccccc2)n3C)cc1 | inconclusive: 50.1 µM [inhibitor, partial curve, poor fit] | 
10 | CC#C[C@]1(O)CC[C@H]2[C@@H]3CCC4=CC(=O)CCC4=C3[C@H](c3ccc(N(C)C)cc3)C[C@@]21C | inactive | 
11 | COc1ccc(C(=O)O)cc1Br | inactive | 
12 | O=C(NCC1CCCO1)Nc1c(NC2CCCC2)c2ccccc2oc1=O (centres undefined) | inconclusive: 0.251 µM [inhibitor, full curve, poor fit] | 
13 | CCOc1ccc(C(=O)COC(=O)c2cc(=O)[nH]c3ccccc23)cc1 |  | inconclusive: -31.7% [inhibitor]
14 | O=C(Nc1c(-c2ccccc2)[nH][nH]c1=O)c1cccs1 | inconclusive: 100 µM [inhibitor, single point] | 
15 | CCN(Cc1ccco1)C(=O)c1cc2cc(Br)ccc2[nH]1 | active: 17.8 µM | 
16 | COC(=O)c1ccc(CNC(=O)C(Cc2ccccc2)NC(=O)c2ccccc2)cc1 (centres undefined) | inconclusive: 2.82 µM [inhibitor, full curve, poor fit] | 
17 | COc1ccc(/C=N/NC(=S)Nc2ccccc2[N+](=O)[O-])cc1O | inconclusive: 141 µM [inhibitor, partial curve, poor fit] | 
18 | O=C(O)C1=NC(C(=O)O)CC(C=CN2c3cc(O)c(OC4OC(CO)C(O)C(O)C4O)cc3CC2C(=O)O)=C1 (centres undefined) | inconclusive: 24.3 µM [inhibitor, partial curve, poor fit] | 
19 | CCc1noc(-c2ccn3c(CNC(=O)c4ccc(F)cc4)nnc3c2)n1 | inactive | 
20 | CCCn1nc(C(=O)OCC(=O)NC(=O)NC(C)C)c2ccccc2c1=O | inconclusive: 28.2 µM [inhibitor, single point] | 
21 | O=C(CSc1nc2cc(Cl)ccc2s1)c1cc2ccccc2o1 | inconclusive: 44.7 µM [inhibitor, partial curve, poor fit] | 
22 | CCc1nnc2c3cnn(-c4ccccc4)c3ncn12 | inconclusive: 112 µM [inhibitor, partial curve, poor fit] | 

Row | Compound | Potency | activity change, negative = inhibition
23 | Cc1occc1-c1n[nH]c(=S)n1-c1ccccc1 | inconclusive: 70.8 µM [inhibitor, partial curve, poor fit] | 
24 | CC(O)CNc1nc2c(c(=O)n(C)c(=O)n2C)n1Cc1ccc(Cl)c(Cl)c1 (centres undefined) | inconclusive: 79.4 µM [inhibitor, single point] | 
25 | COC(=O)c1scc(C)c1S(=O)(=O)Nc1ccc(C)cc1 | inconclusive: 126 µM [inhibitor, single point] | 
26 | Clc1nc(-c2n[nH]nc2Cl)n[nH]1 | inconclusive: 20 µM [inhibitor, partial curve, poor fit] | 
27 | Cc1ccc(S(=O)(=O)c2cn(Cc3ccccc3)c3cc(N4CCCCC4)c(F)cc3c2=O)cc1 | inactive | 
28 | Oc1oc(-c2ccccc2)nc1C=Nc1ccccc1 | inconclusive: 2.51 µM [inhibitor, full curve, poor fit] | 
29 | CCCN(C)c1ccc(/C=N/NC(=S)Nc2cccc(CC)c2)cc1 | inconclusive: 44.7 µM [inhibitor, partial curve, poor fit] | 
30 | N#Cc1ccc(NCCNc2cccc3ccccc23)nc1 | inconclusive: 0.282 µM [inhibitor, full curve, poor fit] | 
31 | O=C(NCc1ccco1)c1ccc(Cn2c(SCc3ccccc3)nc3cccnc32)cc1 | inactive | 
32 | C#Cc1cccc(Nc2nc(NCc3ccccc3)nc3ccsc23)c1 | inconclusive: 79.4 µM [inhibitor, partial curve, poor fit] | 
33 | N#Cc1ccccc1CSc1nc2ncc(Br)cc2[nH]1 | inconclusive: 44.7 µM [inhibitor, partial curve, poor fit] | 
34 | Cn1c(=O)[nH]c(=O)c2c1nc(SCC(N)=O)n2CCc1ccccc1 | inconclusive: 35.5 µM [inhibitor, partial curve, poor fit] | 
35 | CCN(CC)S(=O)(=O)c1cccc(-c2nnc(SCC(=O)c3cc(C)n(C)c3C)o2)c1 | inactive | 
36 | C[N+]1(CCOC(=O)C2(c3ccccc3)CCCC2)CCCCC1 | inconclusive: 112 µM [inhibitor, single point] | 
37 | Cc1ccccc1NC(=O)CN1C(=O)COc2ccc(Cl)cc21 | inactive | 
38 | Cc1ccoc1C(=O)NCc1cccc(C(F)(F)F)c1 | inactive | 
39 | COc1cccc(NC(=O)COC(=O)c2sccc2C)c1 | inactive | 
40 | CN1C(=S)SC(C)(C)C1/[N+]([O-])=C/c1ccco1 (centres undefined) | inconclusive: 50.1 µM [inhibitor, partial curve, poor fit] | 
41 | N#Cc1c(N)c(C(=O)c2ccc3c(c2)OCCO3)n2c1CCC2 | inconclusive: 126 µM [inhibitor, single point] | 
42 | Cc1ccc(/C=C/C(=O)O)s1 | inconclusive: 50.1 µM [inhibitor, partial curve, poor fit] | 
43 | CC(C)C(c1nnnn1CCc1ccccc1)N1CCOCC1 (centres undefined) | inconclusive: 15.8 µM [inhibitor, partial curve, poor fit] | 
44 | Nc1c(C(=O)c2ccccc2)oc2ccc(Br)cc12 | inconclusive: 56.2 µM [inhibitor, partial curve, poor fit] | 

Looked up by structure from above:
Row | Compound | Potency | activity change, negative = inhibition
29 | CCCN(C)c1ccc(/C=N/NC(=S)Nc2cccc(CC)c2)cc1 | inconclusive: 44.7 µM [inhibitor, partial curve, poor fit] | 
33 | N#Cc1ccccc1CSc1nc2ncc(Br)cc2[nH]1 | inconclusive: 44.7 µM [inhibitor, partial curve, poor fit] | 
37 | Cc1ccccc1NC(=O)CN1C(=O)COc2ccc(Cl)cc21 | inactive | 
